± gives the standard deviation of the averaged measurements. The list shows a part of the results, in another mix than the full data. Most values lie at the level of the controls, where differences are scatter.

Amino acid sequences for entries named in this document (tags omitted). A change or cut given only in a name is not applied to a line headed by its entry.
UniProt Q9H0K6: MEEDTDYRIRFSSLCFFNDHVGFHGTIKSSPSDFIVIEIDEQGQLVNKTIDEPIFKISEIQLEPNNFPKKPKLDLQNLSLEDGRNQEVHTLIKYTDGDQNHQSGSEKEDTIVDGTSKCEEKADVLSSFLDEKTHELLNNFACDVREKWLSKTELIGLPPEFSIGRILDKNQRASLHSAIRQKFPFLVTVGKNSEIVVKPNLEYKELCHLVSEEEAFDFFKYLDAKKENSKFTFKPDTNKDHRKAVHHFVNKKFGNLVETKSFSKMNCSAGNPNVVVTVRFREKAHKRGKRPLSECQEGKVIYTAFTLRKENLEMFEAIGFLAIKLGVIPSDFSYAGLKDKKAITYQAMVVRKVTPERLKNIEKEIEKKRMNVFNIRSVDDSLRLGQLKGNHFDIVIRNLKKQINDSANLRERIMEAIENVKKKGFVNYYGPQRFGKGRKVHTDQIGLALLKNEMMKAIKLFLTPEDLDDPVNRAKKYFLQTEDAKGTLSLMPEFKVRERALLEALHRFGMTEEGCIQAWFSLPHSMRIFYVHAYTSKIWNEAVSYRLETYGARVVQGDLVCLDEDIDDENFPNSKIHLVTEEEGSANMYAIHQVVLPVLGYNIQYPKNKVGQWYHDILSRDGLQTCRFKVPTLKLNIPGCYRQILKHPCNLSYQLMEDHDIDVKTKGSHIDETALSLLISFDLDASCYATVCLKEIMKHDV
UniProt Q9H9A5, whole entry: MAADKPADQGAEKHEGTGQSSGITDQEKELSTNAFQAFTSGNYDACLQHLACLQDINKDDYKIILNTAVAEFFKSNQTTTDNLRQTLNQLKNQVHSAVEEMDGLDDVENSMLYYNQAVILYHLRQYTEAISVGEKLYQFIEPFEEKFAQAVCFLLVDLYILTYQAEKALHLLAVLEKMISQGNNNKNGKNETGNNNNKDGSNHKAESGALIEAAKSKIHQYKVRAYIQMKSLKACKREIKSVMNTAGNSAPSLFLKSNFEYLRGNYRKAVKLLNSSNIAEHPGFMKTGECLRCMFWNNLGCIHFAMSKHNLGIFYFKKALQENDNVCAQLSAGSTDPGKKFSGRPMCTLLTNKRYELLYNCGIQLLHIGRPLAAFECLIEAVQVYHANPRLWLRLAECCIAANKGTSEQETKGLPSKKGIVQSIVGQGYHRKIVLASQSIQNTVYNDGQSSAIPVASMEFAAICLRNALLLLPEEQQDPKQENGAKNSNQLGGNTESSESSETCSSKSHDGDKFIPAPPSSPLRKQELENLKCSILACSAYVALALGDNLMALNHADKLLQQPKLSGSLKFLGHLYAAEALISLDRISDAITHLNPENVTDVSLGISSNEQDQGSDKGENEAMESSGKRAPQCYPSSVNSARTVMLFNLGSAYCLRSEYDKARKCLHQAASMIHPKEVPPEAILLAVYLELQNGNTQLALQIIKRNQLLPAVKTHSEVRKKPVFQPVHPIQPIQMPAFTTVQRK
UniProt Q9H3G5: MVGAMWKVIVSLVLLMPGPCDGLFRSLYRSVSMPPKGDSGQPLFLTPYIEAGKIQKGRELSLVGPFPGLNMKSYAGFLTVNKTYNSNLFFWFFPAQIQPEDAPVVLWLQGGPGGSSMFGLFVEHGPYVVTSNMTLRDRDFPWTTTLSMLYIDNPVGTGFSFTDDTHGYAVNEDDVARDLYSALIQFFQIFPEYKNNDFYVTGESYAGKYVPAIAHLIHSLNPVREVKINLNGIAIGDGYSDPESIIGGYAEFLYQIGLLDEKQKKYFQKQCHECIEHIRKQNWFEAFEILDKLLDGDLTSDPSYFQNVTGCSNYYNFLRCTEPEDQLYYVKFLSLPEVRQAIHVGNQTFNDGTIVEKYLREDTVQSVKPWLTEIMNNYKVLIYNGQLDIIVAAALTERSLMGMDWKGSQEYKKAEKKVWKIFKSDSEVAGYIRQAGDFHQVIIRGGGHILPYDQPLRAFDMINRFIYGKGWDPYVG
UniProt Q9H8G2: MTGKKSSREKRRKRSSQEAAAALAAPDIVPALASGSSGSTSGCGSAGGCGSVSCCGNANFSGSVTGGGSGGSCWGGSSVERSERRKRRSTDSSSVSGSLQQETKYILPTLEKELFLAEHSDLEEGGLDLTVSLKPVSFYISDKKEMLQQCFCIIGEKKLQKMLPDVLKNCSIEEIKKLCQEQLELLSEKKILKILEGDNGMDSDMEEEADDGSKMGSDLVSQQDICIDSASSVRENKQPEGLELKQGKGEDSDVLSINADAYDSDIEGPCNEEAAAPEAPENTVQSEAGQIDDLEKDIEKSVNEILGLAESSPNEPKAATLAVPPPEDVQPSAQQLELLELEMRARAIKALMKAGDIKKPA
UniProt Q9H4X1: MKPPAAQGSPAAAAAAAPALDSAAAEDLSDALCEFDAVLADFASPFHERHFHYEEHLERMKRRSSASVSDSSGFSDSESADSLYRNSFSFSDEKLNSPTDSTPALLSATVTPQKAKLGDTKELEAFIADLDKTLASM
UniProt Q9H5Q4: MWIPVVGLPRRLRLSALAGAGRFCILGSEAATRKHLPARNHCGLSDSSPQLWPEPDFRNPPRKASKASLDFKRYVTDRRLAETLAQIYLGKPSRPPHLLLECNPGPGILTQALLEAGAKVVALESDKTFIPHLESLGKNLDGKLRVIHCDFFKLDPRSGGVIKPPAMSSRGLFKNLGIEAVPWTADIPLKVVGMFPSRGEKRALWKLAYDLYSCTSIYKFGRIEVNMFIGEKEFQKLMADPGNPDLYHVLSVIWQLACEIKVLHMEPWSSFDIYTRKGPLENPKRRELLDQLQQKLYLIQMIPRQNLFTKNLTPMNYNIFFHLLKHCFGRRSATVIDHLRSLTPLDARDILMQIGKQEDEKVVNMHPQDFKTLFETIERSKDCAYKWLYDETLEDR
UniProt Q9H246: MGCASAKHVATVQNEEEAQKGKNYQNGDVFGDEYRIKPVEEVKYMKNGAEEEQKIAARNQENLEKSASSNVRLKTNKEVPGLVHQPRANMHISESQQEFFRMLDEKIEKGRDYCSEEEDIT
UniProt Q9HBL7: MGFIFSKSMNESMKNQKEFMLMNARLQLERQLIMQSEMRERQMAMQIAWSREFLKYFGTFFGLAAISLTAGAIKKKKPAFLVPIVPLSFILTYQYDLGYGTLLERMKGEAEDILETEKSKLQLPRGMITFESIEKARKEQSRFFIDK
UniProt Q9C0G0: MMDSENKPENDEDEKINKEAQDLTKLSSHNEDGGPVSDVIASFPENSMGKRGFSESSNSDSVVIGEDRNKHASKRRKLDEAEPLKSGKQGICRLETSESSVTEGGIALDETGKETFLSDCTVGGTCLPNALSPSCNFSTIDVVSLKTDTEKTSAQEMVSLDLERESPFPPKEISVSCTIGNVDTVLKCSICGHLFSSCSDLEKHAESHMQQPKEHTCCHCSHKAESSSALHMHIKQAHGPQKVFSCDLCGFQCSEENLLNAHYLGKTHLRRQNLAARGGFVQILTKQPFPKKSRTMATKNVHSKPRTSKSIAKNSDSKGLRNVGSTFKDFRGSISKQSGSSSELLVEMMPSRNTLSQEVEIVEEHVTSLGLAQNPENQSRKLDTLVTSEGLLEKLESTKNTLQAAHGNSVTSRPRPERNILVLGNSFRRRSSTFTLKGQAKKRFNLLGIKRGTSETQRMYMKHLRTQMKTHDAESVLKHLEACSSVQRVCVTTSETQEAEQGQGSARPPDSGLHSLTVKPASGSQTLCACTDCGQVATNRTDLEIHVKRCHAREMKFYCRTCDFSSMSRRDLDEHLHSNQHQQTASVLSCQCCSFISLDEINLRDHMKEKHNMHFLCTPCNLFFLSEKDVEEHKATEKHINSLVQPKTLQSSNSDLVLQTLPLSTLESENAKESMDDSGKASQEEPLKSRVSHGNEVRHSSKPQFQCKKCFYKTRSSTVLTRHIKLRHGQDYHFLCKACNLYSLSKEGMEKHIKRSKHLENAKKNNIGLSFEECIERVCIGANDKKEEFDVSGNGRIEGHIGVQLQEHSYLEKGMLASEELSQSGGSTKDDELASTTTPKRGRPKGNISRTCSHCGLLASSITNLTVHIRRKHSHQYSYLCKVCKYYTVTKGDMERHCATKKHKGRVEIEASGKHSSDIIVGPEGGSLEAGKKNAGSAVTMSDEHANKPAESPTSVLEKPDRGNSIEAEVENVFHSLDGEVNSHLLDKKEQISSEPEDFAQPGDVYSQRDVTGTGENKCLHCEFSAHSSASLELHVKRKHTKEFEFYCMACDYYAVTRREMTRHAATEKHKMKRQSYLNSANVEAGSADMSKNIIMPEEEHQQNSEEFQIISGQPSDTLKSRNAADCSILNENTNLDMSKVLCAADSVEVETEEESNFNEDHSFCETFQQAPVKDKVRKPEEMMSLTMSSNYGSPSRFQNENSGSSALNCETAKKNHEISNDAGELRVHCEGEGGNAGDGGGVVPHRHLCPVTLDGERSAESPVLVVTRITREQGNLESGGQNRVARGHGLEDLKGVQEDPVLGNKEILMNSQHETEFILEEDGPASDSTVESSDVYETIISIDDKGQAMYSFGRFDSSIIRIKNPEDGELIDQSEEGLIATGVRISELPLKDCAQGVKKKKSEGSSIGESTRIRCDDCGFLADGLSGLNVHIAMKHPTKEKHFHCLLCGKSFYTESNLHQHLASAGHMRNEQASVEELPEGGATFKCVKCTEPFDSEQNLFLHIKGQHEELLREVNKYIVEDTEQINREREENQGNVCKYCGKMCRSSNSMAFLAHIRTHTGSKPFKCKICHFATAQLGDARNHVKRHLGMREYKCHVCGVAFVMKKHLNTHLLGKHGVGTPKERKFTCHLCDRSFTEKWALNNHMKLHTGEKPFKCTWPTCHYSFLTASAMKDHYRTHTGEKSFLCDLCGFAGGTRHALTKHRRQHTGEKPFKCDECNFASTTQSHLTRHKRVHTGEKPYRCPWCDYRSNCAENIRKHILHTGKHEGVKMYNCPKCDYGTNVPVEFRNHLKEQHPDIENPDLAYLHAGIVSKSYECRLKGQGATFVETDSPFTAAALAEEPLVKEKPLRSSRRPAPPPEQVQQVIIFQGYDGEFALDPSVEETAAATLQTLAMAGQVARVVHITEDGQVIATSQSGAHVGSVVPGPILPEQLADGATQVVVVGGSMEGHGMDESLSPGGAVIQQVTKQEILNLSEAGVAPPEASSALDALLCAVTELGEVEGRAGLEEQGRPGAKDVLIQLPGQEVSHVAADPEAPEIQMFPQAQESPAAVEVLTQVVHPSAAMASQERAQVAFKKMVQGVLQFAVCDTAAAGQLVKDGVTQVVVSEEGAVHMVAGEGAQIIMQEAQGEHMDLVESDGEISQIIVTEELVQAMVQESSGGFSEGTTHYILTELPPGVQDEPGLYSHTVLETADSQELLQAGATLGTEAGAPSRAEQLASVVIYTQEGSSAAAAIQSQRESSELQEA
UniProt Q9H7F0: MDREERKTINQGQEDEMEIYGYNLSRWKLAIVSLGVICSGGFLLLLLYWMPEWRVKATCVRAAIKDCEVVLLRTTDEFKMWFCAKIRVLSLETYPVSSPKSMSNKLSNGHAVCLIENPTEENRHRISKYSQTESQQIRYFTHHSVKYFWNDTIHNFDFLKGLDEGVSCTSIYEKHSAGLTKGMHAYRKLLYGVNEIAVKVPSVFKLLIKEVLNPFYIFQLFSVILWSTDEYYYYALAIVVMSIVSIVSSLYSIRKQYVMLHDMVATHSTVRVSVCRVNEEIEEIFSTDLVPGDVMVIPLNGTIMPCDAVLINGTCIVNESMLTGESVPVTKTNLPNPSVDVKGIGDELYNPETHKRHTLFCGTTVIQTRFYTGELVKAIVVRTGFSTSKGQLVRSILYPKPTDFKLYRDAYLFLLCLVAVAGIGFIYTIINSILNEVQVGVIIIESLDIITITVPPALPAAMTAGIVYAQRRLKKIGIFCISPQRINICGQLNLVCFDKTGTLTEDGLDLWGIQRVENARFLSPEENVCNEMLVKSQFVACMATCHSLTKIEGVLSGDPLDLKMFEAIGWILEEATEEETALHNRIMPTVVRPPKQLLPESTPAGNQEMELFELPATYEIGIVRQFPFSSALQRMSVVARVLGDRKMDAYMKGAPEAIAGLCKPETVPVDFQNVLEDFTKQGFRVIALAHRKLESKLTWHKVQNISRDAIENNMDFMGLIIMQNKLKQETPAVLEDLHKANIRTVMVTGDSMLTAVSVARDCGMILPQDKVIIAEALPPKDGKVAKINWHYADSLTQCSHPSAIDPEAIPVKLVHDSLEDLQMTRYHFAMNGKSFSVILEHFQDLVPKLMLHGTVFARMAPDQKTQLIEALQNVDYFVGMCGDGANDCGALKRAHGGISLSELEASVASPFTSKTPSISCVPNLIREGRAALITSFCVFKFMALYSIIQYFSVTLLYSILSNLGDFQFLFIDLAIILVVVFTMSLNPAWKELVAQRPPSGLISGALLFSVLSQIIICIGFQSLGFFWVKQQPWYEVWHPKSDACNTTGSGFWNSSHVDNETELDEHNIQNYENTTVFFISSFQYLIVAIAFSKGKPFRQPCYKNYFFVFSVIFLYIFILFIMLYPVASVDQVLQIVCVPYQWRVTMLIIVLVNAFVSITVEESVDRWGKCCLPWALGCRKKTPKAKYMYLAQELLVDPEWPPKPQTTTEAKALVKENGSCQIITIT

Compound in the test: Nc1ncnc2c1ncn2[C@@H]1O[C@H](COP(=O)(O)OP(=O)(O)OP(=O)(O)O)[C@@H](O)[C@H]1O [adenosine triphosphate]
Description: NP40-soluble protein abundance relative to vehicle (solubility fold change) (ratio); higher = more soluble protein in presence of ATP. The conditions noted are these: concentration: 0.1mM. The procedure, abridged:
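Data come from three independent experiments in which Dounce-homogenised Jurkat crude lysate was treated at eight concentrations from 0.1 to 10 mM. Treatment ran 10 min at room temperature and then 3 min at 37 °C, after which 0.8% NP40 and benzonase were added for 60 min at 4 °C before ultracentrifugation. The supernatant underwent TMT labelling and LC-MS/MS, and vsn-normalised intensities were expressed as fold change against the detergent-processed vehicle in each replicate.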
In the case of UniProt Q9H8P0 and related entries, the NP40-soluble protein abundance amounted to 1.05 ± 0.07.

In the case of UniProt Q9H270 and related entries, the NP40-soluble protein abundance stood at 1.05 ± 0.066. To PUS7L (UniProt Q9H0K6) belongs 1.12 ± 0.055; to UniProt Q9H9A5 and related entries, 0.992 ± 0.023. Then XRN2 (UniProt Q9H0D6), with 1.01 ± 0.024. To UniProt Q9GZT8 and related entries belongs 1 ± 0.044; to UniProt Q9H1B7, 0.968 ± 0.022. With EHD1 (UniProt Q9H4M9), the NP40-soluble protein abundance is 1.03 ± 0.066.

Turning to CUEDC2 (UniProt Q9H467), the NP40-soluble protein abundance is 0.893 ± 0.085. UniProt Q9HCC0-2: the NP40-soluble protein abundance turned out to be 1.04 ± 0.028. Then UniProt Q9H8V3 and related entries, with 1.09 ± 0.038. In the case of CPVL (UniProt Q9H3G5), the NP40-soluble protein abundance is 1.01 ± 0.042. Then ADNP (UniProt Q9H2P0), with 0.991 ± 0.036; and UniProt Q9H8G2, with 0.978 ± 0.043; and UniProt Q9C0B5 and related entries, with 0.992 ± 0.023. For UniProt Q9H4X1 and related entries, the NP40-soluble protein abundance was determined as 0.903 ± 0.13. With UniProt Q9H334 and related entries, the NP40-soluble protein abundance was 0.985 ± 0.041.

Regarding SFXN1 (UniProt Q9H9B4), the NP40-soluble protein abundance was 0.9804 ± 0.0076. Regarding UniProt Q9H0V9 and related entries, the NP40-soluble protein abundance worked out at 1.08 ± 0.11.

TFB2M (UniProt Q9H5Q4): the NP40-soluble protein abundance was 0.97 ± 0.075. To UniProt Q9H246 belongs 0.988 ± 0.16; to TMEM168 (UniProt Q9H0V1), 1.13 ± 0.03; to UniProt Q9HBL7, 1.03 ± 0.076. Then ATG5 (UniProt Q9H1Y0), with 1.01 ± 0.046; and RSAD1 (UniProt Q9HA92), with 1.1 ± 0.14; and UniProt Q9HAF1 and related entries, with 0.91 ± 0.13. As to WDR12 (UniProt Q9GZL7), the NP40-soluble protein abundance is 1.03 ± 0.071. HMG20A (UniProt Q9NP66): the NP40-soluble protein abundance stood at 0.902 ± 0.13. Consider ZWILCH (UniProt Q9H900), for which the NP40-soluble protein abundance was 1.05 ± 0.087. UniProt Q9H0P0 and related entries: the NP40-soluble protein abundance turned out to be 1.02 ± 0.033. As for UniProt Q9GZR1 and related entries, the NP40-soluble protein abundance was 0.908 ± 0.036. On to WDR61 (UniProt Q9GZS3), for which the NP40-soluble protein abundance is 1.04 ± 0.068. On to UniProt Q9C0G0 and related entries, for which the NP40-soluble protein abundance worked out at 1.02 ± 0.059.

Consider UniProt Q9H1I8 and related entries, for which the NP40-soluble protein abundance was determined as 1.02 ± 0.26. UniProt Q9H7F0 and related entries: the NP40-soluble protein abundance worked out at 0.988 ± 0.092.

With SEPSECS (UniProt Q9HD40), the NP40-soluble protein abundance came to 0.9982 ± 0.0052. Regarding EGLN1 (UniProt Q9GZT9), the NP40-soluble protein abundance worked out at 1.01 ± 0.05.
